Laboratory results taken from patent US12439917B2, “Method for controlling phakopsora pachyrhizi having resistance against QoI fungicide” (SUMITOMO CHEMICAL COMPANY, LIMITED, priority 2020, dated 2025).
Some of these results come from one statement about several compounds together.

Legend:
[1] = system: soybean rust fungus (Phakopsora pachyrhizi) having an amino acid substitution of F129L on mitochondrial cytochrome b protein; assay: Test Example 2: soybean leaf disk test, spray at 12.5 ppm; format: in vivo; conditions: test compound at 12.5 ppm; soybean leaf disk (cv. Kurosengoku); assessed 10 to 14 days after inoculation
[2] = system: soybean rust fungus (Phakopsora pachyrhizi) having an amino acid substitution of F129L on mitochondrial cytochrome b protein; assay: Test Example 1: soybean leaf disk test, spray at 50 ppm; format: in vivo; conditions: test compound at 50 ppm; soybean leaf disk (cv. Kurosengoku); assessed 10 to 14 days after inoculation

| SMILES | lesion area of the leaf disk relative to the lesion area of the untreated leaf disk [1] [%] | lesion area of the leaf disk relative to the lesion area of the untreated leaf disk [2] [%] |
| --- | --- | --- |
| CO/C=C(\Oc1cc(C2CC2)ccc1C)C(=O)OC [Compound 1 of the present invention] | ≤ 30 | ≤ 30 |
| CO/C=C(\Oc1cc(/N=C/N(C)c2ccccc2)ccc1C)C(=O)OC [Compound 9 of the present invention] | ≤ 30 | ≤ 30 |
| CO/C=C(\Oc1cc(Oc2ccccc2)ccc1C)C(=O)OC [Present compound 15] | ≤ 30 | ≤ 30 |
| CO/C=C(\Oc1cc(C2CC2C2CC2)ccc1C)C(=O)OC (centres unmarked) [Compound 2 of the present invention] | ≤ 30 | ≤ 30 |
| CO/N=C(\Oc1cc(OCc2ccccc2)ccc1C)C1=NOCCO1 [Present compound 45] | – | ≤ 30 |
| CO/C=C(\Oc1cc(OC(=S)N(C)C)ccc1C)C(=O)OC [Present compound 44] | – | ≤ 30 |
| CNC(=O)/C(=N/OC)Oc1cc(OC(C)C)ccc1C [Present compound 27] | ≤ 30 | – |
| CO/C=C(\Oc1cc(COc2ccccc2)ccc1C)C(=O)OC [Present compound 11] | ≤ 30 | – |
| CO/C=C(\Oc1cc(Cc2ccccc2)ccc1C)C(=O)OC [Present compound 18] | ≤ 30 | ≤ 30 |
